Source: patent EP3403665B1, “ANTIBACTERIAL PEPTIDES” (United Arab Emirates University, priority 2017, dated 2019)
Part of at least one peptide drawing is inferred or uncertain, most often the ends. Residues, ends and D or L forms follow the SMILES beside them.

System: both Gram-positive and Gram-negative bacteria
Assay: In vitro disc diffusion test of identified amino acid sequences
Assay type: cell-based
Conditions: for antibacterial activity relative to the standard drug ampicillin: compared to an Ampicillin standard of 10 µg/mL; for anti-bacterial activity: identified amino acid sequences, disc diffusion

| Structure (SMILES) | antibacterial activity relative to the standard drug ampicillin | anti-bacterial activity |
| --- | --- | --- |
| CC[C@H](C)[C@H](NC(=O)CNC(=O)[C@H](CCCNC(=N)N)NC(=O)[C@H](Cc1c[nH]c2ccccc12)NC(=O)[C@@H](NC(=O)[C@H](CCCNC(=N)N)NC(=O)[C@H](Cc1c[nH]c2ccccc12)NC(=O)[C@@H](NC(=O)[C@H](CC(C)C)NC(=O)[C@H](CCCNC(=N)N)NC(=O)CNC(=O)[C@H](CCCNC(=N)N)NC(=O)[C@@H](N)CCCCN)[C@@H](C)CC)C(C)C)C(=O)N[C@@H](Cc1c[nH]c2ccccc12)C(=O)O [SEQ ID NO: 4, Lys-Arg-Gly-Arg-Leu-Ile-Trp-Arg-Val-Trp-Arg-Gly-Ile-Trp] (H-KRGRLIWRVWRGIW-OH) | comparable to the standard drug ampicillin | maximum anti-bacterial activity |
| CC[C@H](C)[C@H](NC(=O)[C@H](Cc1c[nH]c2ccccc12)NC(=O)[C@H](CCC(N)=O)NC(=O)[C@@H](N)CCCNC(=N)N)C(=O)N[C@@H](CO)C(=O)N[C@@H](CCCNC(=N)N)C(=O)N[C@@H](Cc1c[nH]c2ccccc12)C(=O)N[C@H](C(=O)N[C@@H](Cc1c[nH]c2ccccc12)C(=O)N[C@@H](CCC(N)=O)C(=O)N[C@@H](CCCNC(=N)N)C(=O)O)[C@@H](C)O [SEQ ID NO:6, Arg-Gln-Trp-Ile-Ser-Arg-Trp-Thr-Trp-Gln-Arg] (H-RQWISRWTWQR-OH) | comparable to the standard drug ampicillin | maximum anti-bacterial activity |
